Data taken from patent US20050095242A1 (published 2005).
Substitutions are numbered along the chain they refer to. Results are given in words; binding and its absence hold for the method and conditions named. Some binding calls cover weakened binding; strength is not graded here.

T1: BSA-Compound 1 conjugate (human CCR4 extracellular region peptide Compound 1 conjugated to bovine serum albumin) (human)
T1 sequence (peptide, conjugated to BSA (bovine serum albumin) via SMCC): DESIYSNYYLYESIPKPC

B1: anti-CCR4 CDR-grafted antibody Gal3LV1 (antibody, V domains shown)
VH: EVQLVESGGDLVQPGRSLRLSCAASGFIFSNYGMSWVRQAPDKRLEWVATISSASTYSYYPDSVKGRFTISRDNAKNSLYLQMNSLRVEDTALYYCGRHSDGNFAFGYWGQGTLVTVSS
VL: DVVMTQSPLSLPVTPGEPASISCRSSRNIVHINGDTYLEWYLQKPGQSPQLLIYKVSNRFSGVPDRFSGSGSGTDFTLKISRVEAEDVGVYYCFQGSLLPWTFGQGTKVEIK
B2: anti-CCR4 CDR-grafted antibody Gal3LV3 (antibody, V domains shown)
VH: B1 VH
VL: B1 VL with V3L
B3: anti-CCR4 CDR-grafted antibody HV0LV1 (antibody, V domains shown)
VH: EVQLVESGGGLVQPGGSLRLSCAASGFTFSNYGMSWVRQAPGKGLEWVSTISSASTYSYYPDSVKGRFTISRDNSKNTLYLQMNSLRAEDTAVYYCARHSDGNFAFGYWGQGTLVTVSS
VL: B1 VL
B4: anti-CCR4 CDR-grafted antibody HV0LV2 (antibody, V domains shown)
VH: B3 VH
VL: B1 VL with V2I, V3L
B5: anti-CCR4 CDR-grafted antibody HV0LV3 (antibody, V domains shown)
VH: B3 VH
VL: B1 VL with V3L
B6: anti-CCR4 CDR-grafted antibody HV1LV0 (antibody, V domains shown)
VH: B3 VH with T28I
VL: B1 VL with V2I
B7: anti-CCR4 CDR-grafted antibody HV1LV1 (antibody, V domains shown)
VH: B3 VH with T28I
VL: B1 VL
B8: anti-CCR4 CDR-grafted antibody HV1LV2 (antibody, V domains shown)
VH: B3 VH with T28I
VL: B1 VL with V2I, V3L
B9: anti-CCR4 CDR-grafted antibody HV1LV3 (antibody, V domains shown)
VH: B3 VH with T28I
VL: B1 VL with V3L
B10: anti-CCR4 CDR-grafted antibody HV2LV0 (antibody, V domains shown)
VH: B3 VH with A97G
VL: B1 VL with V2I
B11: anti-CCR4 CDR-grafted antibody HV2LV3 (antibody, V domains shown)
VH: B3 VH with A97G
VL: B1 VL with V3L
B12: anti-CCR4 CDR-grafted antibody HV3LV0 (antibody, V domains shown)
VH: B3 VH with T28I, A97G
VL: B1 VL with V2I
B13: anti-CCR4 CDR-grafted antibody HV3LV3 (antibody, V domains shown)
VH: B3 VH with T28I, A97G
VL: B1 VL with V3L
B14: anti-CCR4 CDR-grafted antibody Gal0LV1 (antibody, V domains shown)
VH: B1 VH with D42G, R44G, G97A
VL: B1 VL
B15: anti-CCR4 CDR-grafted antibody Gal0LV2 (antibody, V domains shown)
VH: B1 VH with D42G, R44G, G97A
VL: B1 VL with V2I, V3L
B16: anti-CCR4 CDR-grafted antibody Gal0LV3 (antibody, V domains shown)
VH: B1 VH with D42G, R44G, G97A
VL: B1 VL with V3L
B17: anti-CCR4 CDR-grafted antibody Gal1LV1 (antibody, V domains shown)
VH: B1 VH with D42G, R44G
VL: B1 VL
B18: anti-CCR4 CDR-grafted antibody Gal1LV3 (antibody, V domains shown)
VH: B1 VH with D42G, R44G
VL: B1 VL with V3L
B19: anti-CCR4 CDR-grafted antibody Gal2LV1 (antibody, V domains shown)
VH: B1 VH with G97A
VL: B1 VL
B20: anti-CCR4 CDR-grafted antibody Gal2LV3 (antibody, V domains shown)
VH: B1 VH with G97A
VL: B1 VL with V3L

Each binder was assayed against T1, BSA-Compound 1 conjugate (human CCR4 extracellular region peptide Compound 1 conjugated to bovine serum albumin) (human) (assay: ELISA, COS-7 culture supernatant on BSA-Compound 1 conjugate).

binding, binds:
B1
B2
B3
B4
B5
B6
B7
B8
B9
B10
B11
B12
B13
B14
B15
B16
B17
B18
B19
B20
